# Reference: PubChem BioAssay AID1671190 (National Center for Advancing Translational Sciences (NCATS), 2021)
# Amino acid sequences for entries named in this document (tags omitted). A change or cut given only in a name is not applied to a line headed by its entry.
# UniProt P18054: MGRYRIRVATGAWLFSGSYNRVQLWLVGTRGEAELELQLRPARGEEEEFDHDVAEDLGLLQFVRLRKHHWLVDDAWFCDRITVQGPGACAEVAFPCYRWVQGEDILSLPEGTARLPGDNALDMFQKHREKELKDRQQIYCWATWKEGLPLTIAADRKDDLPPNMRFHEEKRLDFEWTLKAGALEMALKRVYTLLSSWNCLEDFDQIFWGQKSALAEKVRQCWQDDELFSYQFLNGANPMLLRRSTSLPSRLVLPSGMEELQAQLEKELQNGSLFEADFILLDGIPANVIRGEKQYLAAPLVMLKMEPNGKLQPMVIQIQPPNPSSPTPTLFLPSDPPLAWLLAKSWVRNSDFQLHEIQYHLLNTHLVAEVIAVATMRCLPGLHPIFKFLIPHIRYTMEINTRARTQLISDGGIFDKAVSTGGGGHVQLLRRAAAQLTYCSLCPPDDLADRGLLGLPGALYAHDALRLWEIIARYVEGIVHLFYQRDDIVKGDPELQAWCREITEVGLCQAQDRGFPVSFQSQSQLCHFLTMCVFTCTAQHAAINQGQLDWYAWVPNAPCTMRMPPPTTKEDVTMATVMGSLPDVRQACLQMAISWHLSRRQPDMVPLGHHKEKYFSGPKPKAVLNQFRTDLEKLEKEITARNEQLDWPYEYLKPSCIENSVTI
# Several values for one entry are separate records, joined by “and”; a condition that tells them apart may be missing. Equal values may be shown once. About 6,100 (1.1%) of roughly 580,000 compounds were called active. Inconclusive means that the source gave no clear call. Such entries were picked first, then a sample of the others. Calls follow the shape of the dose curve; as a rule, active = well fitted inhibition curve with a large enough effect; inconclusive = small, poorly fitted or top-dose-only effect, or another doubt; inactive = no such curve, though single readings can be large or run the other way. Where the call is inconclusive, the potency comes from a doubtful curve fit.
# Molecular target: Polyunsaturated fatty acid lipoxygenase ALOX12 (Homo sapiens) (UniProt P18054)
# Test: Primary qHTS assay for inhibitors of human arachidonate 12S-lipoxygenase (ALOX12): Round 2
# Conditions: purified 12hLO, xylenol orange hydroperoxide absorbance; series mostly up to 108 µM
# How it was run: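 Purified human 12hLO (150 nM final) in 25 mM Hepes, 0.01% Triton X-100, pH 7.0 was preincubated 15 min at room temperature with compound. Then 40 uM arachidonic acid was added, 30 min. Hydroperoxide was read by Fe-XO absorbance ratio 573/405 nm.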
# Potency is read from the fitted curve at half-maximal effect.
row,SMILES,Potency
1,O=C(CCc1cn(Cc2ccc(F)cc2)c2ccccc12)NCCc1ccc(Cl)cc1,inactive
2,Cc1oc2ccc(O)c(CN(C)Cc3ccccc3)c2c1C(=O)Nc1ccccc1,"inconclusive: 141 µM [inhibitor, partial curve, poor fit]"
3,CCOc1ccc(NC(=O)c2nn(Cc3ccccc3)c(=O)c3ccccc23)cc1OCC,"inconclusive: 35.5 µM [inhibitor, partial curve, poor fit]"
4,CCN(CC)CC#CCOC(=O)C(O)(c1ccccc1)C1CCCCC1 (centres undefined),"inconclusive: 56.2 µM [inhibitor, partial curve, poor fit] and inconclusive: 50.1 µM [inhibitor, partial curve, poor fit]"
5,CCCCc1c(C)c(C#N)c2[nH]c3ccccc3n2c1=O,inactive
6,O=C(c1cc(Br)c[nH]1)N1CCSCC1,"inconclusive: 50.1 µM [inhibitor, partial curve, poor fit]"
7,COC(=O)c1cc(=O)nc(NN=C2c3ccccc3-c3ccccc32)s1,"inconclusive: 100 µM [inhibitor, single point]"
8,CC(=O)Nc1ccc(-c2nc(N3CCCCC3)sc2C)cc1,"inconclusive: 0.891 µM [inhibitor, full curve, poor fit]"
9,CCN(CC)CCOC(=O)c1ccc(NC(=O)C2(c3ccccc3)CCCC2)cc1,"inconclusive: 1.26 µM [inhibitor, full curve, poor fit]"
10,CN(C)CCOc1ccccc1-c1ccccc1,"inconclusive: 0.631 µM [inhibitor, full curve, poor fit]"
11,CCN(CC)c1ccc(/C=N/N2CCOCC2)cc1,"inconclusive: 158 µM [inhibitor, partial curve, poor fit]"
12,CC(=O)C1=C(O)C(=O)N(c2nnn(C)n2)C1c1cccs1 (centres undefined),"inconclusive: 2.82 µM [inhibitor, full curve, poor fit]"
13,COc1ccc(/C=N/NC(=O)C(=O)N2CCCC2)cc1,"inconclusive: 3.98 µM [inhibitor, full curve, poor fit]"
14,O=C(O)c1cccc2c3c([nH]c12)CCCC3,"inconclusive: 12.6 µM [inhibitor, partial curve, poor fit]"
15,COc1ccc(C2C(C#N)=C(C)NC3=C2C(=O)CC(C)(C)C3)cc1 (centres undefined),"inconclusive: 89.1 µM [inhibitor, partial curve, poor fit]"
16,CCC(c1nnnn1CC1CCCO1)N(CCN1CCOCC1)Cc1cc2cc(C)ccc2[nH]c1=O (centres undefined),"inconclusive: 20 µM [inhibitor, full curve, poor fit]"
17,N#Cc1nc(-c2cccs2)oc1NCCc1ccccc1,"inconclusive: 25.1 µM [inhibitor, partial curve, poor fit] and inconclusive: 56.2 µM [inhibitor, partial curve, poor fit]"
18,Oc1ccc(CNc2ccc(F)cc2)c2cccnc12,"inconclusive: 7.08 µM [inhibitor, full curve, poor fit]"
19,CC(=O)Nc1ccc(NC(=O)c2ccc(NS(=O)(=O)c3cc(C(C)(C)C)cc(C)c3C)cc2)cc1,inactive
20,O=C1NC(=S)SC1=Cc1cccs1,"inconclusive: 56.2 µM [inhibitor, partial curve, poor fit]"
21,Cc1ccc(S(=O)(=O)N(C)C)cc1NC(=O)COC(=O)c1sc2cc(Cl)ccc2c1Cl,inactive
22,CCOC(=S)N/C(=N\S(=O)(=O)c1ccccc1)c1ccccc1,"inconclusive: 44.7 µM [inhibitor, partial curve, poor fit]"

# 3 entries from above, sorted by count of non-hydrogen atoms, ascending:
row,SMILES,Potency
10,CN(C)CCOc1ccccc1-c1ccccc1,"inconclusive: 0.631 µM [inhibitor, full curve, poor fit]"
18,Oc1ccc(CNc2ccc(F)cc2)c2cccnc12,"inconclusive: 7.08 µM [inhibitor, full curve, poor fit]"
12,CC(=O)C1=C(O)C(=O)N(c2nnn(C)n2)C1c1cccs1 (centres undefined),"inconclusive: 2.82 µM [inhibitor, full curve, poor fit]"

# Next results.

row,SMILES,Potency
1,COc1ccc(C2CC3(CC(C)(C)NC(=S)N3)Oc3cc(O)cc(C)c32)cc1OC (centres undefined),"inconclusive: 28.2 µM [inhibitor, partial curve, poor fit]"
2,O=C(c1c(F)cccc1F)N(Cc1ccccn1)C1CC1,"inconclusive: 35.5 µM [inhibitor, single point]"
3,CCCOc1ccc(C(=O)NCCN2CCOCC2)cc1,"inconclusive: 89.1 µM [inhibitor, single point]"
4,O=C(C1CCCC1)N1Cc2ccccc2CC2(CCN(CC3CCNC3)C2)C1 (centres undefined),"inconclusive: 2.85 µM [inhibitor, partial curve, poor fit]"
5,CS(=O)(=O)c1ccc(Cl)c(NC(=O)CSC(=S)N2CCCC2)c1,inactive
6,Nc1nc(COc2ccccc2C(=O)NCc2ccccc2)nc(Nc2ccc(F)cc2)n1,"inconclusive: 8.91 µM [inhibitor, partial curve, poor fit]"
7,O=C(NC(=S)Nc1ccccc1N1CCOCC1)c1ccc(Br)cc1,active: 35.5 µM
8,CCCNC(=O)COC(=O)c1ccc2[nH]c(C)c(C)c2c1,"inconclusive: 70.8 µM [inhibitor, partial curve, poor fit]"
9,O=C(CCS(=O)(=O)c1nc(-c2cccs2)cc(C(F)(F)F)n1)Nc1ccc(OC(F)(F)F)cc1,"inconclusive: 3.16 µM [inhibitor, full curve, poor fit]"
10,Cc1cccc(NC(=S)N(Cc2cccs2)Cc2cc3cc(C)cc(C)c3[nH]c2=O)c1,"inconclusive: 50.1 µM [inhibitor, partial curve, poor fit]"
11,COC(=O)N/N=C/c1sc(N2CCCCC2)nc1-c1cccs1,inactive
12,CCCCN(C)CCNS(=O)(=O)c1ccc2c(c1)n(C)c(=O)c(=O)n2C,"inconclusive: 79.4 µM [inhibitor, single point]"
13,CN1CCN(C2=Cc3ccccc3Sc3cc(F)ccc32)CC1,"inconclusive: 56.2 µM [inhibitor, partial curve, poor fit]"
14,CN(C)C(=O)c1cccnc1-c1nc2ccccc2s1,"inconclusive: 44.7 µM [inhibitor, partial curve, poor fit]"
15,O=C(CSc1nc2ccccc2s1)Nc1cc(C(=O)O)cc(C(=O)O)c1,inactive
16,CCOC(=O)CCCc1c[nH]c2ccccc12,inactive
17,COCCN1CCCN(C(=O)c2cccc(OC)c2)c2ccccc21,"inconclusive: 22.4 µM [inhibitor, full curve]"
18,S=C(Nc1cccc2ccccc12)NC1CCCCC1,active: 44.7 µM
19,c1ccc(-c2csc3ncnc(NCCN4CCOCC4)c23)cc1,inactive
20,CCN(CC)CCSC(=O)C(c1ccccc1)c1ccccc1,inactive
21,Cc1ccc(C)c(Cn2nnc3c(=O)[nH]c(C4CCCN(C(=O)c5ccco5)C4)nc32)c1 (centres undefined),"inconclusive: 141 µM [inhibitor, partial curve, poor fit]"
22,COc1cccc(CN2CCN(C3CCN(c4ccccc4C)CC3)CC2CCO)c1 (centres undefined),inactive

row,SMILES,Potency
1,COc1cc(/C=N/N=C(\N)c2nonc2N)cc(OC)c1O,"inconclusive: 70.8 µM [inhibitor, partial curve, poor fit]"
2,COc1cc(O)oc1C=Nc1ccc(Cl)cc1Cl,"inconclusive: 50.1 µM [inhibitor, partial curve, poor fit]"
3,Cc1cc(N=Cc2c(O)ccc3cc(Br)ccc23)no1,"inconclusive: 79.4 µM [inhibitor, single point]"
4,CCOC(=O)/C(C#N)=C\c1cc2ccc(C)cc2nc1N1CCCCC1,"inconclusive: 141 µM [inhibitor, partial curve, poor fit]"
5,CNC(=O)C1CN(c2ccc(OC)cc2)C(=O)N1 (centres undefined),inactive
6,Cc1cn2nc(C(=O)N3CCC(NC(=O)c4nccc5ccccc45)CC3)cc2c(=O)[nH]1,inactive
7,O=C(c1ccccc1)N1CCN(C2C3CC4CC(C3)CC2C4)CC1 (centres undefined),inactive
8,Cc1cc2ncc(C(=O)Nc3ccsc3C(=O)O)c(C)n2n1,"inconclusive: 126 µM [inhibitor, single point]"
9,OC(CN1CCN(c2ccccn2)CC1)Cn1c2ccc(Cl)cc2c2cc(Cl)ccc21 (centres undefined),inactive
10,Cc1cc(C)c(S(=O)(=O)NCCc2sc(-c3cccc(F)c3)nc2C)c(C)c1,"inconclusive: 50.1 µM [inhibitor, partial curve, poor fit]"
11,CCCNC(=O)C1CCC(Cn2c(=O)c3sccc3n(CC(=O)Nc3ccccc3)c2=O)CC1 (centres undefined),"inconclusive: 31.6 µM [inhibitor, partial curve, poor fit]"
12,O=C(CNC(=O)c1ccc(-c2ccccc2)cc1)OCc1ncc(-c2ccccc2)o1,"inconclusive: 158 µM [inhibitor, single point]"
13,COC(=O)CN1C(=S)N(c2ccc(Cl)cc2)C(=O)C1CC(=O)Nc1ccc(Cl)cc1 (centres undefined),active: 35.5 µM
14,COc1ccc(C(=O)N(CCCN(C)C)c2nc3ccc(Cl)cc3s2)cc1OC,"inconclusive: 39.8 µM [inhibitor, partial curve]"
15,COc1ccc(C2NC(c3ccc(OC)cc3OC)C(C)C(=O)C2C)c(OC)c1 (centres undefined),inactive
16,CC(=O)N1CCN(c2ccc(NCc3ccc(F)cc3)cc2)CC1,"inconclusive: 17.8 µM [inhibitor, full curve, poor fit]"
17,CSc1cccc(NC(=S)N2CCCN(Cc3ccc(F)cc3)C2)c1,"inconclusive: 112 µM [inhibitor, single point]"
18,C[C@@H]1ON(C)[C@H]2C[C@H]3c4[nH]c5cccc(-c6ccc7c(c6)OCO7)c5c4CCN3C(=O)[C@@H]12,"inconclusive: 44.7 µM [inhibitor, partial curve]"
19,Cc1ccc(S(=O)(=O)c2c(N)n(NC(=O)C3CC3)c3nc4ccccc4nc23)cc1,"inconclusive: 50.1 µM [inhibitor, partial curve, poor fit]"
20,c1coc(-c2nc(N=C3N=c4ccccc4=N3)[nH]c2-c2ccco2)c1,"inconclusive: 50.1 µM [inhibitor, partial curve, poor fit]"
